Publication PMC12550048
These are yes or no findings as the source states them, for the method shown. In cells and extracts the contact can be indirect. Some entries that bind do so weakly or less than the wild type.

Sequences of proteins named here, by UniProt entry; tags and fusion partners are left off.
UniProt Q9QY76: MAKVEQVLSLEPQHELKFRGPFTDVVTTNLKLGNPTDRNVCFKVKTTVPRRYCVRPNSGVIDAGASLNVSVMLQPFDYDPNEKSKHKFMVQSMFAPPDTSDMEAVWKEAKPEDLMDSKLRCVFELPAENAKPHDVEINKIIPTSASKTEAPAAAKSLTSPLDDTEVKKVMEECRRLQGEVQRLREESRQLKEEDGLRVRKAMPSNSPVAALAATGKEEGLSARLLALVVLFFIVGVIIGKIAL

Biological target: T1, PTPIP51 (mouse (endogenous in MEF)) (UniProt Q3UJU9)
T1 sequence: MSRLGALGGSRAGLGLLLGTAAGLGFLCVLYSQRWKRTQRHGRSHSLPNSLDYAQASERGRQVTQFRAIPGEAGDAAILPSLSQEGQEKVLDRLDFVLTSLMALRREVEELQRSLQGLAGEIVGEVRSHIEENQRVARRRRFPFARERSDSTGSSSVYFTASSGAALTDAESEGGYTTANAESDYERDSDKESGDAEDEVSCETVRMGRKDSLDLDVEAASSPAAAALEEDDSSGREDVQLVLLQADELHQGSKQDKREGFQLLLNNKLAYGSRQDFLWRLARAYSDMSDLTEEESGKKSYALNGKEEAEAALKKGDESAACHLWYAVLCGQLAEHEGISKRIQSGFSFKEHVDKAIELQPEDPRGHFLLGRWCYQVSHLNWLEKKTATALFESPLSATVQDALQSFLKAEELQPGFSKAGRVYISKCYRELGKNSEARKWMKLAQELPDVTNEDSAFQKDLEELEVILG
Assay: proximity ligation; Duolink PLA in PFA-fixed, Triton-permeabilised MEF cells with anti-VAPB and anti-PTPIP51 primary antibodies; cells untreated or treated with 20 uM CCCP for 5 min, with or without 100 uM CK666; PLA dots per 100 um^2

Q: Which binding does the source give for VAP-B (from UniProt Q9QY76 1-243) here?
A: The binding was “binds”.
